# Measured values: the supplement of paper PMC10849652
# Sequences of proteins named here, by UniProt entry; tags and fusion partners are left off. A change or cut given only in a name is not applied to a line headed by its entry.
# UniProt Q9Y4C5: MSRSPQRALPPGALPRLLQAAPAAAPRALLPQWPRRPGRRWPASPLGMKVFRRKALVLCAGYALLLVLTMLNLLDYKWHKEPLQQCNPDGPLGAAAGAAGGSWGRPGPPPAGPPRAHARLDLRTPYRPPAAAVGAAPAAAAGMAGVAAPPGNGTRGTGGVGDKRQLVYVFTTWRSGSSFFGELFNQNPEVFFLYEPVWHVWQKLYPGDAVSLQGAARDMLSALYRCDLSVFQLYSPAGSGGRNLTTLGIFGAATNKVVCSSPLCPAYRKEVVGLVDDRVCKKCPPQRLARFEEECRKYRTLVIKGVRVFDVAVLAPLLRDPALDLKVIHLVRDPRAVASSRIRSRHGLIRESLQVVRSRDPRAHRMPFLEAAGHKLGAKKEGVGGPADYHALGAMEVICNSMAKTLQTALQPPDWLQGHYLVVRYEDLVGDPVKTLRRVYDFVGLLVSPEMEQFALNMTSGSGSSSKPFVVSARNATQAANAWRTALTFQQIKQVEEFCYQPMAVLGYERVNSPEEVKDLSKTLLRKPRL
# UniProt O43529: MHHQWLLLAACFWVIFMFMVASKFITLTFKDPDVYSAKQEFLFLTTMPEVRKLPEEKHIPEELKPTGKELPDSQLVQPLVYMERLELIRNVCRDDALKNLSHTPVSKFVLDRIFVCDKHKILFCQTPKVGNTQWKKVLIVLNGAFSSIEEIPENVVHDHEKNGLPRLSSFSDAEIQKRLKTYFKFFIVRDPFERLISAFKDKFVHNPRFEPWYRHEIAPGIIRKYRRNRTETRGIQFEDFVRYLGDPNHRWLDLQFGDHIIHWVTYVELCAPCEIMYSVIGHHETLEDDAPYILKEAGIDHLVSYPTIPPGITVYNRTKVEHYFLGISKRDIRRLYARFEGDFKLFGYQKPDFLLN
# UniProt Q92989: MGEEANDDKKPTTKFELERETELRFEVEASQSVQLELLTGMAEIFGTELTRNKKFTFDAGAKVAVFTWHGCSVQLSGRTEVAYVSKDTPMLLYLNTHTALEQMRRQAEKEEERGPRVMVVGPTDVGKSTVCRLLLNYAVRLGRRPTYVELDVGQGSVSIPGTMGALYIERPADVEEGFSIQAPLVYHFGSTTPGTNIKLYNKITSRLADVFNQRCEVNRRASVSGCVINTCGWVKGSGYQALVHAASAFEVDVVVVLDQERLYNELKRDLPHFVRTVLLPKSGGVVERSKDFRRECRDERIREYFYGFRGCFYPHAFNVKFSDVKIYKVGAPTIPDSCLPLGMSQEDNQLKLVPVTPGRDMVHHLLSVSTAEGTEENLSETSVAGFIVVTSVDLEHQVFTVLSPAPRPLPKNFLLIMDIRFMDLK
# UniProt Q8WUX9: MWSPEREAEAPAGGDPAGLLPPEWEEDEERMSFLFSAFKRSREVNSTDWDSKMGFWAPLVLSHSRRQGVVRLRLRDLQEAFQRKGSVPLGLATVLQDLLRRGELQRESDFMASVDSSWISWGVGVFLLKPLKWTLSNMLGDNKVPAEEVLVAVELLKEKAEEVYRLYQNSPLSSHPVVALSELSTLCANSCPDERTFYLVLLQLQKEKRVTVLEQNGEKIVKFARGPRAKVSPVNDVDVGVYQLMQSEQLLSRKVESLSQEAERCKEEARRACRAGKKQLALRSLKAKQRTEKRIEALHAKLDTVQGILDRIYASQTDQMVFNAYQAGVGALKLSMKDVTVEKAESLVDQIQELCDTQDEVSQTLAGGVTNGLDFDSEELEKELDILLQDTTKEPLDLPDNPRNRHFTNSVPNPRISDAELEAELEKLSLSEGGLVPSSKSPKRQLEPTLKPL
# UniProt O75503: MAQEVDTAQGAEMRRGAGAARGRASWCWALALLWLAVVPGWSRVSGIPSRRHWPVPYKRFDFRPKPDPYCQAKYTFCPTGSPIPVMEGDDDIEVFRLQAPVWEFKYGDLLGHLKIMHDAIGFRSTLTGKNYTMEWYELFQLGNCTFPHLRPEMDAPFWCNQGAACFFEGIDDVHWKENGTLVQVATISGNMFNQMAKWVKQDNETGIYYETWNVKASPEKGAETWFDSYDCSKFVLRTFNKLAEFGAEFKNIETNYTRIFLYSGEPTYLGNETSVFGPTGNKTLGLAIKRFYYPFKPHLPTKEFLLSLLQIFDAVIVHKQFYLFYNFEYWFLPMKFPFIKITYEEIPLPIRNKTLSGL
# UniProt P33552, whole entry, looked up: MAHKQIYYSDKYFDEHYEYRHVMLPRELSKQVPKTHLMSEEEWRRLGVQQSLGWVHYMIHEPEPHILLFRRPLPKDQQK
# UniProt Q7Z7A1: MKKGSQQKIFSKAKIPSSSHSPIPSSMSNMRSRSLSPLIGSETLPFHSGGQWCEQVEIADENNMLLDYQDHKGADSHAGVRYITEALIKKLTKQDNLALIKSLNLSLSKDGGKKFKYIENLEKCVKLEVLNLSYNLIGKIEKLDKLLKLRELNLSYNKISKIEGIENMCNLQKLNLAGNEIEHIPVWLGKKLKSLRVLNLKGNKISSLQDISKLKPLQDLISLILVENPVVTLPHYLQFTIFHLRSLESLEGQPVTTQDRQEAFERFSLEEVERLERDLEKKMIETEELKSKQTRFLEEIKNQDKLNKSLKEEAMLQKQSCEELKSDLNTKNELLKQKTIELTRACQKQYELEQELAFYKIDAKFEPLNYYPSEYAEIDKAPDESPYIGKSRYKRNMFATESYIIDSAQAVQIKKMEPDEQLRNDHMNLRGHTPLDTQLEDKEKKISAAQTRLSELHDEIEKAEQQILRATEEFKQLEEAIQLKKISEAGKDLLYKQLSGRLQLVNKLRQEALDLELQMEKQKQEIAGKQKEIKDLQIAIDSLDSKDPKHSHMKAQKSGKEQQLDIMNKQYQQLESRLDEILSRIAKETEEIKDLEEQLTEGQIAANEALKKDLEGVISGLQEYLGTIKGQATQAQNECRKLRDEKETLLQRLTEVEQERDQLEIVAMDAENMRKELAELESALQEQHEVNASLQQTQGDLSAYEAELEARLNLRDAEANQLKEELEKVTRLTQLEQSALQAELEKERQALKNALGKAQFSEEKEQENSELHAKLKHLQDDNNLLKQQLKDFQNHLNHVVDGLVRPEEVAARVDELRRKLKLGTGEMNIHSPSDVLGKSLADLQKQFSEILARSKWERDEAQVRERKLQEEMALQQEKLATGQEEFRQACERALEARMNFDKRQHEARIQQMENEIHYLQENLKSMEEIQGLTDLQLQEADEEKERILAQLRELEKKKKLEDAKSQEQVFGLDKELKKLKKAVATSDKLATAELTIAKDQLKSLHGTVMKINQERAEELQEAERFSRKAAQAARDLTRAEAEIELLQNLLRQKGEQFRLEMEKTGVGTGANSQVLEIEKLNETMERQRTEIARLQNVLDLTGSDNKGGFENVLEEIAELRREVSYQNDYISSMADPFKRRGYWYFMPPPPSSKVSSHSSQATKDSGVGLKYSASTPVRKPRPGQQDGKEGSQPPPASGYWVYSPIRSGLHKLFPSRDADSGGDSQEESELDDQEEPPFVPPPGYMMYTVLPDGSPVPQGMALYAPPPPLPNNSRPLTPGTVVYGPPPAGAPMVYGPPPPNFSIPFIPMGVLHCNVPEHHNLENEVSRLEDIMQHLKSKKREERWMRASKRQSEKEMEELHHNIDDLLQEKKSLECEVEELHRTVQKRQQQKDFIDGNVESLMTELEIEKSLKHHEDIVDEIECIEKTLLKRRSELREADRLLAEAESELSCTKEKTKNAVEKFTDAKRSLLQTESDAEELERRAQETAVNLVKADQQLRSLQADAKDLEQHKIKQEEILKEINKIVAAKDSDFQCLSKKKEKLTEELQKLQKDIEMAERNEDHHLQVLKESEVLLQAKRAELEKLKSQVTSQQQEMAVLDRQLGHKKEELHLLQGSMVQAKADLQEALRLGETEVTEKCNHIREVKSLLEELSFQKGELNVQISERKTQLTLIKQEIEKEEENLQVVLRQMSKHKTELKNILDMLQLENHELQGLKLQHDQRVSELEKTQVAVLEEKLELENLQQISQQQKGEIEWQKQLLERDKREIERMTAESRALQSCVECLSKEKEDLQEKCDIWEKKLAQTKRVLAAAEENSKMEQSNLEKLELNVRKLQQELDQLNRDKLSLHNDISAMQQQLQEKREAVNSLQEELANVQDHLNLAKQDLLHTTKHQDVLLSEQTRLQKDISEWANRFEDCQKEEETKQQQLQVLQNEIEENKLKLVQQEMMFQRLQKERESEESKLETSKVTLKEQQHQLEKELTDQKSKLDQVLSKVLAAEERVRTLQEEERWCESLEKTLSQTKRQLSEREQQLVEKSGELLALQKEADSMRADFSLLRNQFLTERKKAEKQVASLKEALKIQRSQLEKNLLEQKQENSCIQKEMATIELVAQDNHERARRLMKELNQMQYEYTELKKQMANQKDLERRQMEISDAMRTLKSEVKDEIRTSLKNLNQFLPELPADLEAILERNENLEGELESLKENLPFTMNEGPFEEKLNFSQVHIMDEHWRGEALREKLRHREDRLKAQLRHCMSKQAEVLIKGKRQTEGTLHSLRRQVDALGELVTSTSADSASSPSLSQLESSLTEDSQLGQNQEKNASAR
# UniProt Q9Y3Y2: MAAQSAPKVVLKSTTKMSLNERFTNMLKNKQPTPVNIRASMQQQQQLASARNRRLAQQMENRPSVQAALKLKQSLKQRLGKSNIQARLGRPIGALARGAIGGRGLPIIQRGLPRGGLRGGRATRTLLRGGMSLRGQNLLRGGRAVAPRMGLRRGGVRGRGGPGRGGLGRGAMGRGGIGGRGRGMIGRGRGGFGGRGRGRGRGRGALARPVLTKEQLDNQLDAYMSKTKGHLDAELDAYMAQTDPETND
# UniProt Q8N9A8: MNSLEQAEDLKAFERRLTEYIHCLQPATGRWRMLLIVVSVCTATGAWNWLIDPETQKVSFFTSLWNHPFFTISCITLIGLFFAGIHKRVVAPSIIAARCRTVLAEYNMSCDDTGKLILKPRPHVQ
# UniProt Q07065: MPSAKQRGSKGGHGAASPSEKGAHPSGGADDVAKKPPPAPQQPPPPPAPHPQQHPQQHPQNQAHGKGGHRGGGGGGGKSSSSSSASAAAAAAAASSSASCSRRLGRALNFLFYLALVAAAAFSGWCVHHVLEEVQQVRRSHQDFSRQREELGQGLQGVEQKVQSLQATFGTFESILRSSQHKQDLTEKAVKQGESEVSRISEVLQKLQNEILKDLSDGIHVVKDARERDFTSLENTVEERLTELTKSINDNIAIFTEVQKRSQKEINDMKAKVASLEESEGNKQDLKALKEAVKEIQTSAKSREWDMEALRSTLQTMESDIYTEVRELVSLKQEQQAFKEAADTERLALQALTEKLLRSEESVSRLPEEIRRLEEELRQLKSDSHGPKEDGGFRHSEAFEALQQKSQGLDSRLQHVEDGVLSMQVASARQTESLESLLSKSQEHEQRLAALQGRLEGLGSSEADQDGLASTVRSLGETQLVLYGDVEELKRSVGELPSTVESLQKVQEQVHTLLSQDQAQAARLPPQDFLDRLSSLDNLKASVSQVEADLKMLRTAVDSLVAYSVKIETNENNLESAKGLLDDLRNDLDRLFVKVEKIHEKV
# UniProt Q9H9E3: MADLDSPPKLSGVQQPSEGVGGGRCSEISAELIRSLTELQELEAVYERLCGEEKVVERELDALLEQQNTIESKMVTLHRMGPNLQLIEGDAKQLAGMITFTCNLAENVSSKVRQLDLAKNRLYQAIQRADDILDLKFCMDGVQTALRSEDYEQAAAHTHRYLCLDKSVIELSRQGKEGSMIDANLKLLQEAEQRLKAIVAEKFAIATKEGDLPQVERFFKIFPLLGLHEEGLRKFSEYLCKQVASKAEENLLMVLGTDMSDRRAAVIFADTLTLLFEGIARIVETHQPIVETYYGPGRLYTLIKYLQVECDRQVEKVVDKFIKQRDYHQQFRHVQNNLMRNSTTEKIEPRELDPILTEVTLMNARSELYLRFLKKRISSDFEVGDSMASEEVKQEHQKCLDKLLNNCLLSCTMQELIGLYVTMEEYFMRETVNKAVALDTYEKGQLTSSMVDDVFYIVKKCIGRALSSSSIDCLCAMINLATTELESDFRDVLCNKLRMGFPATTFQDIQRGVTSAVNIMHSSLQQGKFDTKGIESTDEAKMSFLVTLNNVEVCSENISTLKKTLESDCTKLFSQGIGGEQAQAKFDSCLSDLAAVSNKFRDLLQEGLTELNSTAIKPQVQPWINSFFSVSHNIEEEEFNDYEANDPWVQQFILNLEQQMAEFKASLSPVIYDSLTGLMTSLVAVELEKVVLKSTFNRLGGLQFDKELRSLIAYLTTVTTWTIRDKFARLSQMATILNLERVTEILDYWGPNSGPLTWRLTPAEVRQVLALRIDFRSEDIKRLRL
# UniProt P51911: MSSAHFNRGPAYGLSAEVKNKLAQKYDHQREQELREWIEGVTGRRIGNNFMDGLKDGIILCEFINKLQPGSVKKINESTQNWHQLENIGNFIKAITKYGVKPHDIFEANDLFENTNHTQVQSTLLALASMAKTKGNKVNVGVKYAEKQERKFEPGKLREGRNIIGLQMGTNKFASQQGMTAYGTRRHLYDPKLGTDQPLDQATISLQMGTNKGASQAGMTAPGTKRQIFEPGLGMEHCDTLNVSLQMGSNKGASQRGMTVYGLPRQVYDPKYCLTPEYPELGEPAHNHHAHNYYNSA
# This is one part of the list.
# Compound: C1=CC=C(C=C1)[C@H](COC2=CC3=C(C=C2)NC(=O)N3)NC(=O)C4=CC=CN(C4=O)CC5=CC(=C(C=C5)F)F
# Experiment: log2 fold change, soluble protein after heating vs DMSO (PISA); higher = thermal stabilisation; K562 cells, 10 uM, 30 min; active = over 0.2 and 3.5 SD of the protein, either way, in both replicates (recomputed)
# Outline: (§1)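 K562 cells (2×10^6 cells/mL) were treated with 10 μM compound for 30 min, and aliquots were heated for 3 min over 48°C-58°C. Pooled aliquots were extracted in PBS with 0.5% NP-40 at 4°C, and the supernatant after 21,000xg for 90 min was measured by TMTpro 16plex LC-MS/MS with channel sums equalised. Reported thermal stability, relative to control samples and from duplicates, is a log2 fold change.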
row,Target,log2 fold change
1,COIL (UniProt P38432),inactive: -0.178
2,CLASP2 (UniProt O75122),inactive: 0.059
3,CHST2 (UniProt Q9Y4C5),inactive: -0.033
4,CLIC6 (UniProt Q96NY7),inactive: -0.063
5,CHST10 (UniProt O43529),inactive: 0.004
6,COA4 isoform 2 (UniProt Q9NYJ1),inactive: 0
7,CNBP (UniProt P62633),inactive: 0.028
8,CHURC1-FNTB (UniProt B4DL54),inactive: -0.007
9,CLP1 (UniProt Q92989),inactive: -0.075
10,CIAO2B (UniProt Q9Y3D0),inactive: -0.018
11,CMYA5 (UniProt Q8N3K9),inactive: 0.053
12,CMTM4 (UniProt Q8IZR5),inactive: 0.031
13,CLSTN1 (UniProt O94985),inactive: -0.046
14,CHMP7 (UniProt Q8WUX9),inactive: -0.02
15,CLN5 (UniProt O75503),inactive: -0.003
16,CLASRP (UniProt Q8N2M8),inactive: -0.081
17,CKS2 (UniProt P33552),inactive: -0.084

# Compound: CC1=C(SC2=C1C(=N[C@H](C3=NN=C(N32)C)CC(=O)N)C4=CC=C(C=C4)Cl)C
# Experiment: as above
# Outline: as §1
row,Target,log2 fold change
1,COG8 (UniProt Q96MW5),inactive: -0.029
2,COG2 (UniProt Q14746),inactive: 0.063
3,CHUK (UniProt O15111),inactive: -0.104
4,CLASP2 (UniProt O75122),inactive: 0.117
5,CNTRL (UniProt Q7Z7A1),inactive: -0.136
6,CHTOP isoform 3 (UniProt Q9Y3Y2),inactive: -0.297
7,CHST2 (UniProt Q9Y4C5),inactive: 0.046
8,COA5 (UniProt Q86WW8),inactive: -0.037
9,CNEP1R1 isoform 2 (UniProt Q8N9A8),inactive: 0.054
10,COG7 (UniProt P83436),inactive: -0.16
11,CMC4 (UniProt P56277),inactive: 0.019
12,CHST10 (UniProt O43529),inactive: -0.064
13,COA4 isoform 2 (UniProt Q9NYJ1),inactive: 0.063
14,CNBP (UniProt P62633),inactive: -0.028
15,CKAP2 (UniProt Q8WWK9),inactive: -0.266
16,CLCNKB (UniProt P51801),inactive: -0.019
17,CKAP4 (UniProt Q07065),inactive: 0.045
18,CLCN5 isoform 2 (UniProt P51795),inactive: 0.028
19,CLP1 (UniProt Q92989),inactive: 0.047
20,CIAO2B (UniProt Q9Y3D0),inactive: -0.221
21,CMYA5 (UniProt Q8N3K9),inactive: 0.121
22,COG4 (UniProt Q9H9E3),inactive: -0.246
23,CHPT1 (UniProt Q8WUD6),inactive: 0.003
24,CLSTN1 (UniProt O94985),inactive: 0.103
25,COG6 (UniProt Q9Y2V7),inactive: -0.241
26,COG1 (UniProt Q8WTW3),inactive: -0.176
27,CHMP7 (UniProt Q8WUX9),inactive: 0.009
28,CLN5 (UniProt O75503),inactive: -0.007
29,CNN1 (UniProt P51911),inactive: 0.228
30,CLASRP (UniProt Q8N2M8),inactive: 0.136

# Compound: CC1=C2C(=CC=C1)N=C(N(C2=O)C3=CC=CC=C3C)CN4C=NC5=C(N=CN=C54)N
# Experiment: as above
# Outline: as §1
row,Target,log2 fold change
1,CHUK (UniProt O15111),inactive: -0.137
2,CNTRL (UniProt Q7Z7A1),inactive: 0.228
3,CHTOP isoform 3 (UniProt Q9Y3Y2),inactive: -0.122
4,COA5 (UniProt Q86WW8),inactive: -0.038
5,CLIC6 (UniProt Q96NY7),inactive: 0.137
6,CNEP1R1 isoform 2 (UniProt Q8N9A8),inactive: 0.098
7,COG5 isoform 2 (UniProt Q9UP83),inactive: 0.128
8,COG7 (UniProt P83436),inactive: -0.074
9,CHURC1-FNTB (UniProt B4DL54),inactive: 0.005
10,CLCNKB (UniProt P51801),inactive: -0.156
11,CKAP4 (UniProt Q07065),inactive: 0.198
12,CLCN5 isoform 2 (UniProt P51795),inactive: -0.023
13,CMTM4 (UniProt Q8IZR5),inactive: 0.081
14,COG4 (UniProt Q9H9E3),inactive: -0.169
15,COG6 (UniProt Q9Y2V7),inactive: -0.044
16,COL14A1 (UniProt Q05707),inactive: -0.128
17,CNN1 (UniProt P51911),inactive: -0.063
18,CLSTN3 isoform 2 (UniProt Q9BQT9),inactive: 0.008

# Compound: Cc1sc2c(c1C)C(c1ccc(Cl)cc1)=N[C@@H](CC(=O)OC(C)(C)C)c1nnc(C)n1-2
# Experiment: as above
# Outline: as §1
row,Target,log2 fold change
1,COG2 (UniProt Q14746),inactive: 0.141
2,COIL (UniProt P38432),inactive: 0.108
3,CHUK (UniProt O15111),inactive: 0.057
4,CLEC11A (UniProt Q9Y240),inactive: 0.015
5,COL12A1 (UniProt Q99715),inactive: -0.034
6,CNTRL (UniProt Q7Z7A1),inactive: 0.029
7,CHTOP isoform 3 (UniProt Q9Y3Y2),inactive: 0.036
8,CHST2 (UniProt Q9Y4C5),inactive: -0.025
9,CLIC6 (UniProt Q96NY7),inactive: 0.097
10,CNEP1R1 isoform 2 (UniProt Q8N9A8),inactive: 0.043
11,CHST10 (UniProt O43529),inactive: -0.052
12,CHURC1-FNTB (UniProt B4DL54),inactive: -0.009
13,CKAP2 (UniProt Q8WWK9),inactive: 0.116
14,CKAP4 (UniProt Q07065),inactive: 0
15,CLCN5 isoform 2 (UniProt P51795),inactive: 0.024
16,CLP1 (UniProt Q92989),inactive: 0.141
17,CMYA5 (UniProt Q8N3K9),inactive: 0.216
18,CMTM4 (UniProt Q8IZR5),inactive: -0.206
19,COG4 (UniProt Q9H9E3),inactive: 0.102
20,CHPT1 (UniProt Q8WUD6),inactive: -0.198
21,CLSTN1 (UniProt O94985),inactive: 0.058
22,COG6 (UniProt Q9Y2V7),inactive: 0.157
23,COL14A1 (UniProt Q05707),inactive: 0.124
24,COG1 (UniProt Q8WTW3),inactive: 0.378
25,CHMP7 (UniProt Q8WUX9),inactive: -0.077
26,CLN5 (UniProt O75503),inactive: 0.057
27,CNN1 (UniProt P51911),inactive: -0.004
28,CKS2 (UniProt P33552),inactive: -0.08
